This note sets out measurements from article PMC5785340.

Construct, isoform or probe ends are uncertain for at least one entry. A negative result means that nothing was seen under these conditions.

This data set addresses MaRAP2-4 (Mentha arvensis) (UniProt A0A1Z2X6Y3). The data set can be described thus: EMSA. Conditions: DIG Gel Shift Kit 2nd Generation (Roche), manufacturer's protocol; pH and temperature not stated; recombinant protein; protein details: GST (pGEX-4T2); label: DIG. (In general: A gel shift assay detects complexes by their altered migration in electrophoresis.)

As for “AGAAGCCACCAGATAGCCACCTGAGCCACCCT (double strand) [GCC(M)]”, the binding result is listed as “no binding”.

Turning to “AGAAGCCGCCAGATAGCCGCCTGAGCCGCCCT (double strand)”, the binding result is “binds”.

In the case of “AGACATGAATTAGATCATGAATTTGCATGAATTCT (double strand) [JARE]”, the binding result was “binds”. As for “AGACATGCATTAGATCATGCATTTGCATGCATTCT (double strand) [JARE(M)]”, the binding result is on record as “no binding”. In the case of “AGAGCCGACAGATGCCGACTGGCCGACCT (double strand) [DRE1]”, the binding result is recorded as “binds”. Regarding “AGAGCCTACAGATGCCTACTGGCCTACCT (double strand) [DRE1(M)]”, the binding result is “no binding”.

In the case of “AGATACCGACATAGATTACCGACATTGTACCGACATCT (double strand) [DRE2]”, the binding result is listed as “binds”. For the sequence “AGATACTGACATAGATTACTGACATTGTACTGACATCT (double strand) [DRE2(M)]”, the binding result is listed as “no binding”.
